Values quoted from earlier work in patent US20090030055A1, “PKC activation as a means for enhancing s[sequence] secretion and improving cognition using bryostatin type compounds” (priority 2002, published 2009).
At least one structure is not confirmed: it was looked up by name or label, or the drawing left a doubt.

System: PKC
Conditions: cited from earlier work

In the case of CC(C)=CCC/C(C)=C/CC/C(C)=C/CSc1nc[nH]n1 [Farnesyl thiotriazole], the “potency compared with dioleoylglycerol” value is listed as “equipotent with dioleoylglycerol” and the Kd (read-out: Kd of PKC activation) is listed as 2500 nM.
